Results on one molecule are retold here after PMC2848857, “The Crystal Structure of PPIL1 Bound to Cyclosporine A Suggests a Binding Mode for a Linear Epitope of the SKIP Protein” (PLoS ONE, 2010).

No constants are given. Whether binding was seen depends on the method and setting. Some binding calls cover weakened binding; strength is not graded here. Tags and fused reporters may be left off the sequences shown.

In the test the target is T1, GST-SKIP^43–79 (human) (UniProt Q13573).
T1 sequence: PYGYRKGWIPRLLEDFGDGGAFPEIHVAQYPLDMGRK
In words: pull-down; GST or GST-SKIP43-79 on glutathione-sepharose beads; 50 µg purified PPIL1 with 20 µl beads, 2 h at 4°C; washed with TET-150 (150 mM NaCl, 0.1% Triton X-100) or TET-1000 (1 M NaCl); SDS-PAGE, Coomassie; both purified.

B1: PPIL1 protein (purified, GST tag cleaved) (enzyme, UniProt Q9Y3C6 1-166)
chain: MAAIPPDSWQPPNVYLETSMGIIVLELYWKHAPKTCKNFAELARRGYYNGTKFHRIIKDFMIQGGDPTGTGRGGASIYGKQFEDELHPDLKFTGAGILAMANAGPDTNGSQFFVTLAPTQWLDGKHTIFGRVCQGIGMVNRVGMVETNSQDRPVDDVKIIKAYPSG
B1: the binding result is on record as “binds”.
